The assay is described as follows: qHTS Assay to Find Inhibitors of Chronic Active B-Cell Receptor Signaling. The settings on record: ABC-DLBCL IkBa-CBG/CBR reporter, luminescence ratio (green luciferase fused to IkBa over red control in TMD8 lymphoma cells), 4 h. In short, it runs like this:
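Compounds up to 46 uM were incubated four hours with TMD8 cells whose green CBG68 luciferase is fused to IkappaBalpha; red CBR luminescence normalised the signal, and concentration-effect curves were fitted to fusion, red and ratio data.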
A general note: In qHTS, concentration-response curves come from the screen itself.

[1] abbreviates: measured here: CBR red luminescence, cell number.
[2] abbreviates: measured here: IkBa-CBG green luminescence.

Molecules are shown by their SMILES. The list shows a part of the results. Shown are side measurements of this screen, not its main read-out; they come without a call. Compounds called inactive in the main read-out are mostly missing here. The note in brackets gives the kind of curve behind each potency; many fits are weak.

The values that follow come from PubChem BioAssay AID493014 (National Center for Advancing Translational Sciences (NCATS), 2011).

As for `CSc1nc2ccc(Br)cc2[nH]1`, the AC50 (usually the concentration at which the activity in the assay is half-maximal) under setting [1] was 0.631 µM [rising, full curve].

For `O=C(CSc1nnc(NCc2ccccc2)s1)c1ccco1`, under setting [1], the AC50 was 2.24 µM [rising, partial curve, poor fit].

Consider `CCN1CCN(CC(=O)Nc2cc3c(cc2C(C)=O)OCO3)CC1`, for which the AC50 under setting [1] was 14.1 µM [rising, partial curve, poor fit].

For the molecule `CN1/C(=C\C(=O)Nc2ccc(Cl)cc2)C(C)(C)c2ccccc21`, the AC50 is 32.6 µM [falling, single point] under setting [1] and 16.4 µM [rising, partial curve, poor fit] under setting [2].

Consider `CC[C@]12c3[nH]c4ccc(Cl)cc4c3CCN1C(=O)[C@@H](CC(=O)NC/C=C(\C)CCC=C(C)C)C[C@@H]2C(=O)N1CCN(C(=O)c2ccco2)CC1`, for which, under setting [1], the AC50 is 7.31 µM [falling, partial curve].

As to `COCCn1c(C)cc(C(=O)CSc2nc(C)cc(C)c2C#N)c1C`, the AC50 under setting [1] is 6.51 µM [rising, single point].

On to `CSCCC(NC(=O)c1cccc(S(=O)(=O)N2CCOCC2)c1)c1nc2ccccc2[nH]1` (centres undefined), for which the half-maximal activity concentration (AC50) under setting [1] is 29.1 µM [rising, single point].

For `CN1CCC(=NNC(=O)c2ccco2)CC1`, under setting [1], the AC50 was 35.5 µM [falling, single point].

For `O=C(CSc1nnc(Cc2ccccc2)n1C1CCCCC1)N1CCOCC1`, the AC50 under setting [1] is 29.1 µM [falling, single point].

For `N=c1c(C(=O)NCCc2ccccc2)cc2c(=O)n3ccccc3nc2n1CC1CCCO1` (centres undefined), the AC50 under setting [1] is 14.1 µM [falling, partial curve].

`CCOc1cccc(N)c1`: the AC50 runs as follows: under setting [1], 9.2 µM [falling, partial curve]; under setting [2], 9.2 µM [rising, partial curve, poor fit].

For the molecule `COc1ccc(CNC(=O)c2cc3c(=O)n4ccccc4nc3n(CC3CCCO3)c2=N)cc1` (centres undefined), the AC50 under setting [1] was 0.00651 µM [rising, full curve, poor fit].

Regarding `CN(C)c1cc2c(cc1NS(=O)(=O)c1ccccc1)n(C)c(=O)n2C`, the AC50 under setting [1] is 35.5 µM [rising, single point].

Regarding `CCNCc1cc(OCC)c(OCC(=O)NCCc2ccccc2)cc1Cl`, the AC50 under setting [1] is 4.47 µM [falling, full curve].

`Cc1cccc2sc(N(CCCN(C)C)C(=O)c3ccco3)nc12`: the AC50 under setting [1] is 28.2 µM [falling, single point].

As for `CCN(CC)C(=O)Cn1c(=O)n(CCC(=O)Nc2ccc(F)cc2)c(=O)c2sccc21`, under setting [1], the concentration at half-maximal activity (AC50) is 3.98 µM [falling, partial curve, poor fit].

Consider `O=CN1Cc2[nH]c3ccccc3c2N(c2ccc(Cl)cc2)C1=O`, for which the concentration at half-maximal activity (AC50) under setting [1] is 4.47 µM [falling, partial curve, poor fit].
